The values are deposited in ChEMBL (CHEMBL3988442, “University of Dundee, Small-Polar-MMV Screening Library” (2021)).

Protein sequences, listed by entry. Tags and fused reporters are not part of them. Residues count along the entry.
UniProt Q8IDJ8, 1-583: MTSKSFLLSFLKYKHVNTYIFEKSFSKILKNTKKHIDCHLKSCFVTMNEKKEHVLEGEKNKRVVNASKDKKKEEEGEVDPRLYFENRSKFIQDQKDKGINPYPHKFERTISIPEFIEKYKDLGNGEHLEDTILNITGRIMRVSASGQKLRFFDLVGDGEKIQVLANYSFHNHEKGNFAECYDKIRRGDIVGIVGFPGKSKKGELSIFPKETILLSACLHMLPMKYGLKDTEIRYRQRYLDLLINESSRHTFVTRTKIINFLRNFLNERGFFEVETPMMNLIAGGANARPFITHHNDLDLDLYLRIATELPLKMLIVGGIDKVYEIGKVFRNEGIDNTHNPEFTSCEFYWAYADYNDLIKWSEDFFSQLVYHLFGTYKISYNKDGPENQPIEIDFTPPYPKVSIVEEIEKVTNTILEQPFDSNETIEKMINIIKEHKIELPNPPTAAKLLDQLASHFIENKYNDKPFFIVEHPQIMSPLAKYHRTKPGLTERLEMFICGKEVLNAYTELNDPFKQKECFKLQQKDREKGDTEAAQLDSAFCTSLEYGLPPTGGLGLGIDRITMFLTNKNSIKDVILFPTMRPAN
UniProt A4I591, 1-473: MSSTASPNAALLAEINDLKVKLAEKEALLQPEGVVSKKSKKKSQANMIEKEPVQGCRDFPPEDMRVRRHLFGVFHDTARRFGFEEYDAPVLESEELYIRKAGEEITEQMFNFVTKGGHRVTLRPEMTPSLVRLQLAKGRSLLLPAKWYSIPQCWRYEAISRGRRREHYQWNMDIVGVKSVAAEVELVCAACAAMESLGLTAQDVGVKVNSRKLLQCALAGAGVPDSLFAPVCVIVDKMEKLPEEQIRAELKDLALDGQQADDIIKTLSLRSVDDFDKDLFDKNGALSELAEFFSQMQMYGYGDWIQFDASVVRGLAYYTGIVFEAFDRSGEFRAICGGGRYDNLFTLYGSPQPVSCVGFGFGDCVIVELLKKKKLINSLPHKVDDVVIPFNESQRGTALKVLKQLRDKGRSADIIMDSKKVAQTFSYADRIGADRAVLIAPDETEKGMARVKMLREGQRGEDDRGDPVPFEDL
UniProt Q4DA54, 1-478: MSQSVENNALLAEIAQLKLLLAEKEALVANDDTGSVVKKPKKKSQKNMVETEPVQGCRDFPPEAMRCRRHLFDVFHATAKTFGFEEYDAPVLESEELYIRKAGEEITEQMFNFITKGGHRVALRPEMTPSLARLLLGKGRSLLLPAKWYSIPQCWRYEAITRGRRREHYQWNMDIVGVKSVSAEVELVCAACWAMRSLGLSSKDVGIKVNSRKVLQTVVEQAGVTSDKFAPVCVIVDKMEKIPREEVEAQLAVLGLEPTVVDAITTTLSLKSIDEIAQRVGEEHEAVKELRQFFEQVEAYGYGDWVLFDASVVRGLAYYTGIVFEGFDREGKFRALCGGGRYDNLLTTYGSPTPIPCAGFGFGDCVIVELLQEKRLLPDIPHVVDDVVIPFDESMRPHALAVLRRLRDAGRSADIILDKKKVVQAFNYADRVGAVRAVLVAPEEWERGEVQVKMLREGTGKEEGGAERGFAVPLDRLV
UniProt P9WPC5, whole entry: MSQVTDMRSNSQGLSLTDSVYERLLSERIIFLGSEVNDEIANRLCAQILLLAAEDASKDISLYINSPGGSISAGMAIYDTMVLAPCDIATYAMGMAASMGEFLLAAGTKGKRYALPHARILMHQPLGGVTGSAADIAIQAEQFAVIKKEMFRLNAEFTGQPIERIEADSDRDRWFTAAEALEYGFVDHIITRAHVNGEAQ
UniProt P9WPC3, whole entry partner: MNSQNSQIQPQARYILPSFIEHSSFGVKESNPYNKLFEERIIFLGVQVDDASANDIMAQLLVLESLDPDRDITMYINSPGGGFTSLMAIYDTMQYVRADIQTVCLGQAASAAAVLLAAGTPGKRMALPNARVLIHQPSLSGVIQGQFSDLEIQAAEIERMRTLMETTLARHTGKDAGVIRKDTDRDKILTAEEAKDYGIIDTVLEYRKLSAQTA

Each number is a percent effect as filed.
How 0% and 100% were set is not recorded. Most values in the screen are low, and negative values occur.
The compounds are a random part of those screened.
A dash means the value is not listed here; it may have been measured.

PfKRS1: 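Enzyme assay of the cytosolic lysyl-tRNA synthetase in 384-well plates, read by luminescence. Target: Lysine-tRNA ligase, Plasmodium falciparum 3D7 (UniProt Q8IDJ8). Concentration: 30 µM. Direction is inferred from only a few compounds that gave an IC50; most scored high, so higher reads as stronger inhibition. Size under these conditions: about 69,000 compounds, about 49 of them at 50% or above in at least one test.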
LiHisRS: 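Enzyme assay of histidyl-tRNA synthetase; the read-out is not stated. Target: Histidine-tRNA ligase, Leishmania infantum (UniProt A4I591). Concentration: 30 µM. Higher reads as stronger inhibition (inferred: compounds with an IC50 in retests scored well above the rest). The assay is labelled LdHisRS but filed under L. infantum. Of about 69,000 compounds tested this way, about 410 (0.6%) reached 50% or more in at least one test.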
TcHisRS: 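Enzyme assay of histidyl-tRNA synthetase; the read-out is not stated. Target: Histidine-tRNA ligase, Trypanosoma cruzi CL Brener (UniProt Q4DA54). Concentration: 30 µM. Direction is inferred from retests: higher values go with stronger inhibition. Of about 69,000 compounds tested this way, about 31 (0.045%) reached 50% or more in at least one test.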
Leishmania in macrophages: 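Cell assay of Leishmania donovani living inside macrophages; the read-out is not stated. Tested at 30 µM. Direction is inferred from retests: higher values go with stronger inhibition. Of about 69,000 compounds tested this way, about 1,000 (1.5%) reached 50% or more in at least one test.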
ClpP1P2: 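Protease assay of ClpP1P2, read by the AMC dye that it sets free. Target: ClpP1P2, Mycobacterium tuberculosis (UniProt P9WPC5 and UniProt P9WPC3). Compounds at 50 µM. Higher reads as stronger inhibition, judged from the few compounds that gave an IC50. Most other retested compounds had strongly negative values. Size under these conditions: about 69,000 compounds, about 10 of them at 50% or above in at least one test.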

structure | PfKRS1 | LiHisRS | TcHisRS | Leishmania in macrophages | ClpP1P2
O=C(c1cnc(-c2ccccc2)s1)N1CCC2(CC1)OCCO2 | -11.68 | -0.5236 | 2.674 | 14.22 | 10.13
CCc1nncn1CCNC(=O)Nc1ccc2c(c1)CCCO2 | 9.363 | 12.28 | 2.521 | 10.31 | 4.625
[H][C@]12CC[C@@]3(N=C(CC)N(CC(C)C)C3=O)[C@@]1([H])CN(C(=O)NCC(C)C)C2 | - | - | - | 21.45 | -
COCC1c2nnn(CC3CC3)c2CCN1C(=O)c1cccc(F)c1 (configuration not stated) | 6.947 | 22.64 | 4.237 | -16.23 | -11.1
CCOCC1CN(C(=O)CS(C)(=O)=O)Cc2cnn(C)c21 (configuration not stated) | 1.827 | 22.64 | 2.703 | - | 0.4399
COCCCNC(=O)c1cc(-c2ccc(OC)cc2)nn1C | 4.569 | 5.618 | -1.554 | -18.56 | -6.65
[H][C@@]12CCN(C(=O)Cc3ccc(C)cc3)C[C@]1(COC)CCO2 | - | - | - | -32.13 | -
COc1cc(C)nc(N2CCN(C(=O)CSC)CC2)n1 | 1.121 | 9.174 | 5.294 | 14.98 | -29.6
Cc1cc(C2CCCN2C(=O)c2ccc(OCC(N)=O)cc2)no1 (configuration not stated) | 3.359 | 23.08 | -3.448 | 36.05 | 5.569
O=C(CN1CCC(c2ccnn2CCO)CC1)NCc1cccs1 | 10.23 | 16.85 | 4.511 | 43.74 | 9.311
O=C1CC[C@H]2[C@H](CCN2Cc2ccccn2)N1CC1CCOCC1 | 4.517 | 9.756 | 3.759 | - | -0.9525
COC(=O)CCCN(C)C(c1cccnc1)c1ccc(F)cc1F (configuration not stated) | 2.191 | 6.452 | 4.082 | 21.57 | -4.017
CCCN(c1ccccc1C(=O)O)S(=O)(=O)c1ccc2ccccc2c1 | 6.83 | 0 | 0.5291 | 5.64 | 9.505
Cc1c[nH]c(CN2CCC3(CCCN(Cc4ccc(F)c(F)c4)C3)C2)n1 (configuration not stated) | 1.764 | 15.15 | -1.087 | 53.74 | -0.8297
CS(=O)(=O)c1ccc(CNC(=O)N2CCC(C(N)=O)C2)cc1 (configuration not stated) | 14.92 | 16.85 | 3.759 | 21.67 | 0.07068
CN1CC(NC(=O)CCOc2cccc(Cl)c2)CC1=O (configuration not stated) | -1.723 | 4.225 | 0.6369 | 5.311 | 9.021
Cc1nc(CN2C(=O)CC[C@@H]3[C@H]2CCN3C(=O)C2CCOCC2)cs1 | -5.132 | 5.882 | 4.926 | - | -7.673
Cn1ccnc1C(=O)NC[C@@H]1OC[C@H]2CN(CC3CC3)CC[C@H]21 | -2.075 | 12 | 5.155 | - | -0.2555
COCc1ccc(C(=O)N2CCN(CC(C)O)CC2)cc1 (configuration not stated) | -0.551 | 0 | 0.2865 | 0.5985 | 4.452
Cc1ccc(N2CC3(COCCN(Cc4cnn(C)c4)C3)OCC2=O)s1 (configuration not stated) | 0.01087 | 11.5 | 6.452 | - | 15.71
O=C(O)C(F)(F)F.[H][C@@]12CCN(CC3CCOCC3)C[C@]1(c1nc(C)no1)CCO2 | - | - | - | -5.794 | -
CCn1cc(C(=O)NCc2ccc3c(c2)OCO3)c(C)n1 | 7.767 | 18.58 | 0.4425 | 24.8 | -7.158
CN1CC(=O)N(c2cccc(F)c2)CC12CCN(CCO)C2 (configuration not stated) | -0.6037 | -14.71 | 7.882 | - | -8.49
Cc1nc(C)n(CC2CN(CCCOc3ccccc3C)CCO2)n1 (configuration not stated) | -1.95 | -1.351 | 4.906 | -22.94 | -2.317
CC(CO)CN(Cc1ccccc1)C(=O)c1csc(CN(C)C)n1 (configuration not stated) | -1.45 | 9.836 | -2.4 | -3.027 | -12.77
CCN1CCN(C)C(=O)C12CCN(Cc1ccsc1)CC2 | 1.583 | 11.65 | 2.913 | - | -16.68
O=C1CC2(CCN(C(=O)c3ccc4c(c3)CCCO4)C2)C(=O)N1 (configuration not stated) | 3.444 | 7.692 | 9.551 | -26.15 | -4.351
O=C(c1ccoc1)N1CCC2(CCC(=O)N2Cc2ccncc2)CC1 | 5.291 | 19.3 | 3.226 | - | 1.316
Cc1noc(C)c1CN1CCC(c2nc3cc(Cl)ccc3o2)CC1 | 1.931 | 10.2 | 7.179 | 10.34 | 2.616
NCCn1nc(C2CCN(C(=O)CC3CCCCC3)C2)c2nccnc21 (configuration not stated) | 1.061 | 6.569 | 14.75 | -5.021 | 3.426

Once more, the final 3:

O=C(c1ccoc1)N1CCC2(CCC(=O)N2Cc2ccncc2)CC1 read PfKRS1: 5.291%; LiHisRS: 19.3%; TcHisRS: 3.226%; ClpP1P2: 1.316%.
Cc1noc(C)c1CN1CCC(c2nc3cc(Cl)ccc3o2)CC1 read PfKRS1: 1.931%; LiHisRS: 10.2%; TcHisRS: 7.179%; Leishmania in macrophages: 10.34%; ClpP1P2: 2.616%.
NCCn1nc(C2CCN(C(=O)CC3CCCCC3)C2)c2nccnc21 (configuration not stated) read PfKRS1: 1.061%; LiHisRS: 6.569%; TcHisRS: 14.75%; Leishmania in macrophages: -5.021%; ClpP1P2: 3.426%.